Assay results from publication PMC3989599.
These are yes or no findings as the source states them, for the method shown. In cells and extracts the contact can be indirect. A result given as binding can be weak or reduced; the word gives no strength.

Sequences of proteins named here, by UniProt entry; tags and fusion partners are left off. A change or cut given only in a name is not applied to a line headed by its entry.
UniProt Q9W0R0: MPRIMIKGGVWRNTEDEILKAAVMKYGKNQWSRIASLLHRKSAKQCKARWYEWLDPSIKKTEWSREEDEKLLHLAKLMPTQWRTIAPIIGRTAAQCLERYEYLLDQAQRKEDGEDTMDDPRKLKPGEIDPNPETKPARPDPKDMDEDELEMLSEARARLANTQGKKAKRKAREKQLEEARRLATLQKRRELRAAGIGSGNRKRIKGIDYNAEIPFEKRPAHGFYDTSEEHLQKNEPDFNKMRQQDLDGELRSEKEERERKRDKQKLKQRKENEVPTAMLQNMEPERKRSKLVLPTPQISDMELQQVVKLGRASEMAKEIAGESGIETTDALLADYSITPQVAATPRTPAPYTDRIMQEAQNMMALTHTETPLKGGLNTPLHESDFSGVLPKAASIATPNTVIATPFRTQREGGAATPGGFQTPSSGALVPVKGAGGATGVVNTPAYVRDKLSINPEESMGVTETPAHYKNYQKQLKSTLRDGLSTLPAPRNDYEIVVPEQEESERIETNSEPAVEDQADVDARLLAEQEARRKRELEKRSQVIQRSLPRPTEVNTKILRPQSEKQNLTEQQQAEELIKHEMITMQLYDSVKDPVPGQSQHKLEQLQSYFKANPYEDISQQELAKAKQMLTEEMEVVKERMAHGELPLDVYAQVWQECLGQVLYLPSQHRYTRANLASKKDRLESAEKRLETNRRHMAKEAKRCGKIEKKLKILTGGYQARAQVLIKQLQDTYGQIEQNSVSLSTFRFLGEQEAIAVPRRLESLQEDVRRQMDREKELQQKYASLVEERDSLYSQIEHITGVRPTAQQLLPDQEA

Target: T1, Fandango (CG6197) (Drosophila melanogaster (endogenous in embryos)) (UniProt A1Z9G2)
T1 sequence: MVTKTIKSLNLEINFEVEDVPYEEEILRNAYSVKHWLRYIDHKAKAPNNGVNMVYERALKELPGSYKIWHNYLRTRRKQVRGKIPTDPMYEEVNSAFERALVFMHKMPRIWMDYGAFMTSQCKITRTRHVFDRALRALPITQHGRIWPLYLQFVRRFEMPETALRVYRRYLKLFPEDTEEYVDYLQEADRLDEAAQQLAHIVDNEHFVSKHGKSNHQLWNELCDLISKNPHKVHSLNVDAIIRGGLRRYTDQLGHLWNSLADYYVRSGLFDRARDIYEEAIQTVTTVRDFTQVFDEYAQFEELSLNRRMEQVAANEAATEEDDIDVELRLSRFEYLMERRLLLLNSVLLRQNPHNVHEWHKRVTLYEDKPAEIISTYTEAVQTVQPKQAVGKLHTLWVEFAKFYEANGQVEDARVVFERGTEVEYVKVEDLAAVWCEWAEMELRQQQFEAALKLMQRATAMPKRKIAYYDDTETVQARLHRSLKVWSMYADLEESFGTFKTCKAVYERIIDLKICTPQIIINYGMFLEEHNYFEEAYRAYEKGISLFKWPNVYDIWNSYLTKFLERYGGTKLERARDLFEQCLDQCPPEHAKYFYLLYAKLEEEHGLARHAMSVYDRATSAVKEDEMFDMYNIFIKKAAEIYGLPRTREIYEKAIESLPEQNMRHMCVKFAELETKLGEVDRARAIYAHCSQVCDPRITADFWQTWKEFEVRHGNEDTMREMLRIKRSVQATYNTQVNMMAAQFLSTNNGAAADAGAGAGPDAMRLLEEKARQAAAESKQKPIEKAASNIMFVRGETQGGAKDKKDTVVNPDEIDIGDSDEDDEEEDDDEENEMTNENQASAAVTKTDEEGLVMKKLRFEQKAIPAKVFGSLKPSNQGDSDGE
Experiment: co-IP; nuclear protein extracts of 0-3 hr wild-type (Oregon-R) embryos; 1 mg extract with rabbit anti-Prp19 (pre-immune serum as control) in HNEB2 buffer (100 mM NaCl, 2,5 mM MgCl2, 10 mM Tris-HCl pH 7,5, 0,5% Triton X-100), 1 hr at 4°C; Dynabeads Protein G; Western blot

Substance | binding
CDC5L (CG6905, cdc5-like) (from UniProt Q9W0R0) | binds
ISY1 (CG9667) | binds
